Assay results as given in publication PMC12040169 (PLOS Biology, 2025).
Some of the results follow.

system: T1, CTL2-GFP (C. trachomatis L2/434/Bu, GFP-expressing); parameters: species or system HeLa; Intracellular C. trachomatis growth in HeLa cells, bulk GFP fluorescence relative to DMSO; details: bulk GFP, single well; 28.5 h, 10 µM; inhibitor
T1 construct: L2/434/Bu, GFP-expressing

Going from `Cn1c(=O)c2c(nc(N3CCOCC3)n2CC/N=C2/CCCCCN2)n(C)c1=O` [CBK267708C] to `CCOCCn1c(CN2CCOCC2)nc2c1c(=O)n(C)c(=O)n2C` [CBK306062], the “% of control remaining” value falls from 159.415% to 70.6624%.

Compared with `CCN(CC)CCNC(=O)c1ccc(Nc2cncc(-c3ccc(O)cc3)n2)c(OC)c1` [CBK122659], `CN(C)c1cccc(-c2cncc(NCc3ccco3)n2)c1` [CBK065555] is higher in “% of control remaining” value: 51.5567% for the first, 117.751% for the second.

First: CC(=O)N1CCN(CCCC(c2ccc(F)cc2)c2ccc(F)cc2)CC1 [CBK024944C]
Second: COc1ccccc1-c1ccc(CC2(C(=O)NCc3ccc(F)cc3)CCOCC2)cc1 [CBK286518]
The “% of control remaining” value of the first is higher: 134.606% for the first, 92.4312% for the second.

Compared with `O=C(CN1C(=O)COc2ccc(Cl)cc21)Nc1cccc(C(=O)O)c1` [CBK269667], `Cc1ccc(C(=O)O)cc1NC(=O)C(=O)NCC(c1ccccc1)N(C)C` (stereo not drawn) [CBK286777] is lower in “% of control remaining” value: 145.252% for the first, 102.992% for the second.

First: O=c1c2sccc2nc2n1CCN(Cc1ccc(F)c(F)c1)CC2 [CBK282295]
Second: Cc1ccc2c(c1)CC(=O)NC21CCN(Cc2cccc(Br)c2)CC1 [CBK039392]
The “% of control remaining” value of the first is lower: 103.294% for the first, 118.76% for the second.

Compared with `O=C(O)CCC(=O)NNc1ccccc1[N+](=O)[O-]` [CBK261546], `CN1CCN(CC(CC(=O)Nc2ccccc2)C(=O)O)CC1` (stereo not drawn) [CBK286746] is higher in “% of control remaining” value: 118.19% for the first, 137.089% for the second.

Going from `CCc1nc2c(OCC(=O)c3ccc(Cl)cc3Cl)cccn2c1N(C)C(=O)C1CC1` [CBK147712] to `CN(C)CCCNC(=O)c1cc2cc(Cl)cc(Cl)c2oc1=O` [CBK269132C], the “% of control remaining” value rises from 113.14% to 129.465%.

First: COc1ccc(C)cc1S(=O)(=O)n1ccc2c(CNC3CC(C)(C)NC(C)(C)C3)cccc21 [CBK113311T]
Second: COc1ccc(-c2nnc(SCC(=O)Nc3cc(C(C)(C)C)no3)n2C2CCCCC2)cc1OC [CBK295131]
The “% of control remaining” value of the first is lower: 131.282% for the first, 136.752% for the second.

Going from `O=C(Nc1ccc2oc(-c3cccnc3)nc2c1)c1sc2cc(Cl)ccc2c1Cl` [CBK267876] to `O=C(NCc1ccc(Cl)c(Cl)c1)c1cncc(-c2ccc(C(=O)N3CCOCC3)cc2)c1` [CBK158612], the “% of control remaining” value falls from 131.67% to 58.8733%.

First: O=C(c1ccccc1)c1ccc2n1CCC2C(=O)N1CCN(c2ccccc2)CC1 (stereo not drawn) [CBK300536]
Second: COc1ccc(N2C(=O)CC(N3CCN(c4ccc(C(=O)c5cccnc5)cc4)CC3)C2=O)cc1 (stereo not drawn) [CBK268924]
The “% of control remaining” value of the first is lower: 94.6451% for the first, 145.73% for the second.

First: O=C(N/N=C/c1ccccn1)c1n[nH]c2c1CCCC2 [CBK262882]
Second: CC(Cc1cccs1)NC(=O)c1cc2c([nH]c1=O)CCCCC2 (stereo not drawn) [CBK282523]
The “% of control remaining” value of the first is higher: 100% for the first, 98.8205% for the second.

First: OCCCNC(c1ccccc1)c1ccc(O)cc1 (stereo not drawn) [CBK266329]
Second: CCN(Cc1cccnc1)C(CC1CCCCC1)c1ccccc1 (stereo not drawn) [CBK061673]
The “% of control remaining” value of the first is higher: 134.863% for the first, 93.2977% for the second.

Compared with `COc1ccc(Cl)cc1NC(=O)CCCn1cnc([N+](=O)[O-])n1` [CBK268882], `Cc1cc(C)c2c(OCC(=O)Nc3nc(C(N)=O)cs3)nn(C)c2n1` [CBK305530] is lower in “% of control remaining” value: 148.139% for the first, 139.717% for the second.

First: COCCn1c(SCc2cn3cc(Br)ccc3n2)nc(C)c1C [CBK305704]
Second: Cc1cc(CSc2cccc(F)c2)no1 [CBK002916]
The “% of control remaining” value of the first is lower: 103.723% for the first, 113.459% for the second.

First: CCn1cc(C2CN(S(=O)(=O)c3ccccc3OC(F)F)CCO2)cn1 (stereo not drawn) [CBK304234]
Second: CC(C)C(=O)N1CCC[C@@H]2NC(=O)c3ccccc3OCC/C=C/C[C@@H]21 [CBK292064]
The “% of control remaining” value of the first is lower: 125.46% for the first, 137.783% for the second.

Going from `CC(C)[C@@H](Cn1nnc2ccccc21)NC(=O)c1ccco1` [CBK282335] to `COc1ccc(CN2C(=S)N(c3ccccc3)[C@H]3[C@@H]2[C@H]2OC(=O)[C@@H]3C[C@H]2O)cc1` [CBK288937], the “% of control remaining” value rises from 87.9979% to 113.461%.

Going from `CCc1cc2c3c(c(=O)oc2cc1OCc1cc(C(=O)O)oc1C)CCCC3` [CBK264402] to `COc1cccc(-c2cc(C(=O)N3CCC(C)CC3)n[nH]2)c1` [CBK288109], the “% of control remaining” value rises from 140.887% to 140.963%.

Compared with `O=C(CC1(O)C(=O)Nc2ccccc21)CC1(O)C(=O)Nc2ccccc21` (stereo not drawn) [CBK263705], `COc1ccc(/N=C(/Nc2cccc(C(F)(F)F)c2)SC)cc1` [CBK018896I] is lower in “% of control remaining” value: 100% for the first, 79.7421% for the second.

First: Cc1n[nH]c(O)c1C(c1ccc(Br)o1)c1c(C)n[nH]c1O [CBK026150]
Second: C=CCOc1cccc(CNc2nn[nH]n2)c1 [CBK267618]
The “% of control remaining” value of the first is higher: 108.406% for the first, 80.2692% for the second.

In the case of `O=C(Nc1nc2ccccc2[nH]1)NC1CCCCC1` [CBK288210], the “% of control remaining” value is reported as 128.213%.
